Measurements from “University of Dundee, Small-Polar-MMV Screening Library” (2021), ChEMBL document CHEMBL3988442.

Protein sequences, listed by entry. Tags and fused reporters are not part of them.
UniProt E9BF75, entry or part of it: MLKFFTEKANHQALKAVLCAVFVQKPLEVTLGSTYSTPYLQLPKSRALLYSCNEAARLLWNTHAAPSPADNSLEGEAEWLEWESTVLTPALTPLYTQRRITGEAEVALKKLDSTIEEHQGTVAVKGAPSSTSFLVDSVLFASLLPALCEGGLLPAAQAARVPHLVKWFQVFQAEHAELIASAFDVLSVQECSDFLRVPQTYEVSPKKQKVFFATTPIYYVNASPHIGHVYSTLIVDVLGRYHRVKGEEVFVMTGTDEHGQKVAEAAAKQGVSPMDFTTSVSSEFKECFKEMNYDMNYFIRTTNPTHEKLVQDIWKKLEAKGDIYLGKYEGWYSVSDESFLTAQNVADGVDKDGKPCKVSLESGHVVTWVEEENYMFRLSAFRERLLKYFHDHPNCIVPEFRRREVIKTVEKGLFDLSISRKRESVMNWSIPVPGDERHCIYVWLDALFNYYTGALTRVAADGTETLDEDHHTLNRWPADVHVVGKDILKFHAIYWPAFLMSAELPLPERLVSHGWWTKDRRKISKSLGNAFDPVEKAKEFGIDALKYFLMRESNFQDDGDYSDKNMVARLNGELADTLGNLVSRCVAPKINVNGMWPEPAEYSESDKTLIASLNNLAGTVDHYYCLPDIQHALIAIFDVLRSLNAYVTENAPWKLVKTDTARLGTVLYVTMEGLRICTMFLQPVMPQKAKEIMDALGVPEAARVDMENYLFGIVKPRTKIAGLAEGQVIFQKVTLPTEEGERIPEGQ

Mtb heat-shock: 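Assay on Mycobacterium tuberculosis, filed only as a heat shock assay from Cornell; the read-out is not stated. The concentration is filed as 10 mM, unlikely as a test dose, so the dose is not known. Direction is inferred from retests: higher values go with stronger inhibition. Of about 69,000 compounds tested this way, about 930 (1.4%) reached 50% or more in at least one test.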
LdMetRS: 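Primary screen of methionyl-tRNA synthetase; the read-out is not stated. Target: Methionyl-tRNA synthetase (putative), Leishmania donovani (UniProt E9BF75). The test concentration is not given. The values are filed as inhibition. Of about 68,000 compounds tested this way, about 24 (0.035%) reached 50% or more in at least one test.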
Mtb growth Cornell: 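Whole-cell assay for inhibitors of Mycobacterium tuberculosis growth, labelled Cornell in the record; the read-out is not stated. The concentration is filed as 10 mM, unlikely as a test dose, so the dose is not known. Higher means stronger inhibition (inferred from two other growth screens of the library). Size under these conditions: about 53,000 compounds, about 900 of them at 50% or above in at least one test.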

Results are percentages, as filed. The record does not define 0% and 100%; most values in the screen are far below 50% and negative numbers occur (in some assays of this library far below -100). The compounds are a random part of those screened.

structure: Brc1csc(CNCc2nnc3n2CCC3)c1
Mtb heat-shock: 23.06
LdMetRS: 8.362
Mtb growth Cornell: 6.496

structure: COc1ncccc1CN1CCN(c2noc(C(C)C)n2)CC1
Mtb heat-shock: -5.449
LdMetRS: 12.63
Mtb growth Cornell: -35.75

structure: CCc1c(O)nc(SC(C)CC)n(-c2ccccc2)c1=O (stereo not given)
Mtb heat-shock: 3.744
LdMetRS: 5.155
Mtb growth Cornell: 96.76

structure: Cc1ccc(-c2cnnc(N3CCCC3c3nonc3C)n2)o1 (stereo not given)
Mtb heat-shock: 10.99
LdMetRS: 19.87
Mtb growth Cornell: 36.92

structure: CC1CCCN(c2ccccc2OCC(=O)NC2CCOCC2)C1 (stereo not given)
Mtb heat-shock: -28.84
LdMetRS: 3.686
Mtb growth Cornell: -9.719

structure: Cc1cc(=O)n2nc(Oc3ccc(C#N)cc3Cl)sc2n1
Mtb heat-shock: 2.938
LdMetRS: 13.62
Mtb growth Cornell: 25.53

structure: O=C(NC1CCC1)[C@H]1C[C@@H]2[C@@H](C1)OCCN2CC1CC1
LdMetRS: 16.26

structure: CN1CCCC(c2ccc(N3CCOCC3)cn2)C1 (stereo not given)
LdMetRS: 17.3

structure: O=C(C1CC=CC1)N1CCC2(CCN(Cc3ccccn3)C2=O)C1 (stereo not given)
LdMetRS: 5

structure: NC(=O)N1CCCC(C(=O)NCc2ccccc2OC(F)(F)F)C1 (stereo not given)
Mtb heat-shock: 35.38
LdMetRS: -2.892
Mtb growth Cornell: 24.32

structure: CCCn1cc(C(=O)NC(CC(=O)O)c2ccco2)c(C)n1 (stereo not given)
Mtb heat-shock: 22.49
LdMetRS: 15.53
Mtb growth Cornell: -55.24

structure: O=C(O)C(F)(F)F.[H][C@@]12CCN(Cc3ccccn3)[C@]1([H])CC[C@H](C(=O)Nc1cnccn1)O2
Mtb heat-shock: -15.5
Mtb growth Cornell: 1.441

structure: O=C(O)C(F)(F)F.[H][C@@]12C[C@H](C(=O)NCCOC)CN(Cc3ccoc3)[C@]1([H])CCO2
Mtb heat-shock: -10.57
Mtb growth Cornell: 31.36

structure: CCCS(=O)(=O)NCC1CCOc2ccccc2C1 (stereo not given)
Mtb heat-shock: 16.02
LdMetRS: 8.661
Mtb growth Cornell: 12.9

structure: COc1ccc(C2CCCN2C(=O)c2cc3c([nH]c2=O)CCC3)cc1 (stereo not given)
Mtb heat-shock: 22.24
LdMetRS: 18.1
Mtb growth Cornell: -11.81

structure: O=C(C1CCOC1)N1CCN(CCn2cccn2)c2ncccc2C1.O=C(O)C(F)(F)F (stereo not given)
Mtb heat-shock: 12.5
Mtb growth Cornell: 5.683

structure: CS(=O)(=O)NCc1nnc2n1CCN(Cc1cccnc1)C2
Mtb heat-shock: -16.42
LdMetRS: 3.483
Mtb growth Cornell: -13.77

structure: CCCNC(=O)c1nc2c(o1)CN(C(=O)CN(C)C)C2
Mtb heat-shock: -9.26
LdMetRS: 6.989
Mtb growth Cornell: 25.08

structure: CNc1cc(C)nc(C2CN(Cc3ccc(C)nc3)CCO2)c1 (stereo not given)
Mtb heat-shock: -12.3
LdMetRS: 13.36
Mtb growth Cornell: -7.46

structure: Cn1ccnc1C(=O)NC[C@@H]1OC[C@H]2CN(S(C)(=O)=O)CC[C@H]21
LdMetRS: 12.89

structure: CCN(CC)c1ccc(NS(=O)(=O)c2cnn(CC)c2)cn1
Mtb heat-shock: 17.78
LdMetRS: 18.44
Mtb growth Cornell: 9.518

structure: Cc1ccc(C)c(C(NC(=O)C(C)(C)C)c2cccnc2)c1 (stereo not given)
Mtb heat-shock: -5.188
LdMetRS: 3.922
Mtb growth Cornell: 0.7781

structure: CCn1c(CN2CCCC2)nnc1C1CCN(Cc2cccnc2)CC1
Mtb heat-shock: -17.72
LdMetRS: 4.682
Mtb growth Cornell: -4.205

structure: CC(C)(C)OC(=O)N1CCn2c(nnc2C2CCCNC2)C1 (stereo not given)
Mtb heat-shock: -15.18
LdMetRS: 8.385
Mtb growth Cornell: -27.32

Repeated from the top, 3 entries:

* Brc1csc(CNCc2nnc3n2CCC3)c1 | Mtb heat-shock: 23.06%; LdMetRS: 8.362%; Mtb growth Cornell: 6.496%
* COc1ncccc1CN1CCN(c2noc(C(C)C)n2)CC1 | Mtb heat-shock: -5.449%; LdMetRS: 12.63%; Mtb growth Cornell: -35.75%
* CCc1c(O)nc(SC(C)CC)n(-c2ccccc2)c1=O (stereo not given) | Mtb heat-shock: 3.744%; LdMetRS: 5.155%; Mtb growth Cornell: 96.76%